The supplement of paper PMC3741180, “A Novel High Throughput Biochemical Assay to Evaluate the HuR Protein-RNA Complex Formation” (PLoS ONE, 2013)
This is one part of the list. Repeats in this data set agree poorly, so a single value says little.

The chains behind the UniProt entries cited, without tags or fusion partners.
UniProt Q15717, whole entry: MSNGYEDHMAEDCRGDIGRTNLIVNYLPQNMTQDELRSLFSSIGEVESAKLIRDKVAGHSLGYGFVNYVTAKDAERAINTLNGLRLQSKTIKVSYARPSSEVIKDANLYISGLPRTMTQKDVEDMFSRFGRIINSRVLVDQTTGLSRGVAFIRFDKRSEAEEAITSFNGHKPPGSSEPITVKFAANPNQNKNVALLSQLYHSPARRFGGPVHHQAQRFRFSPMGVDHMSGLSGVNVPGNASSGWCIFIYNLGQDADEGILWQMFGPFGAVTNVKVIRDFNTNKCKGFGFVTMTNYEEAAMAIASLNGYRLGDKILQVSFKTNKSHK

Biological target: HuR (ELAVL1) - TNFalpha ARE RNA complex (UniProt Q15717)
Experiment: AlphaScreen HuR-RNA complex signal Z-score relative to positive (Bi-TNF, DMSO) controls (Z-score (SD units of positive control)); higher = more complex signal
Settings: screen stage: primary screen; compound concentration: 25 nM

Row | SMILES | AlphaScreen HuR-RNA complex signal Z-score
1 | CCN(CC)C(=S)SSC(=S)N(CC)CC | -1.93
2 | C=C[C@@]1(C)CC(=O)[C@]2(O)[C@@]3(C)[C@@H](O)CCC(C)(C)[C@@H]3[C@H](O)[C@H](OC(C)=O)[C@@]2(C)O1 | 0.0936
3 | CN(Cc1cnc2nc(N)nc(N)c2n1)c1ccc(C(=O)NC(CCC(=O)O)C(=O)O)cc1 (racemic) | 4.19
4 | C[C@H](N)[C@H](O)c1cccc(O)c1 | -2.57
5 | CCN(CC)CCOC(=O)C(Cc1cccc2ccccc12)CC1CCCO1 (configuration not stated) | 0.376
6 | CC1(C)S[C@@H]2[C@H](NC(=O)C(C(=O)O)c3ccccc3)C(=O)N2[C@H]1C(=O)O (some centres not stated) | 0.314
7 | CC(C)=CCC/C(C)=C/CC/C(C)=C/CO | 0.435
8 | Cc1c(C(=O)O)c(O)cc2c1C(=O)c1c(O)c([C@@H]3O[C@H](CO)[C@@H](O)[C@H](O)[C@H]3O)c(O)c(O)c1C2=O | 0.717
9 | Cc1ccccc1OCC(O)CO (configuration not stated) | 1.01
10 | c1ccc2c(c1)CN1CCCC1=N2 | 0.835
11 | O=C1CN(/N=C/c2ccc([N+](=O)[O-])o2)C(=O)N1 | 7.99
12 | CC1(C)S[C@@H]2[C@H](NC(=O)[C@H](C(=O)O)c3ccsc3)C(=O)N2[C@H]1C(=O)O | 2.14
13 | CN[C@@H]1[C@@H](O)[C@@H](O[C@@H]2[C@@H](O)[C@H](O[C@H]3OC(CN)=CC[C@H]3N)[C@@H](N)C[C@H]2N)OC[C@]1(C)O | 31.7
14 | Cc1cc(NS(=O)(=O)c2ccc(N)cc2)no1 | 8.74
15 | C=C[C@@H](C1=CC(=O)C(OC)=C(OC)C1=O)c1ccccc1 | 3.48
16 | O=C1CN(/N=C/c2ccc(-c3ccc([N+](=O)[O-])cc3)o2)C(=O)N1 | 0.85
17 | COc1cc(O)c2c(c1)C(=O)c1cc(C)cc(O)c1C2=O | 0.89
18 | CCOC(=O)n1ccn(C)c1=S | 4.12
19 | C[n+]1cccc(C(=O)[O-])c1 | 2.57
20 | NS(=O)(=O)c1cc2c(cc1Cl)NCNS2(=O)=O | -5.92
21 | CC(=O)O[C@H]1CC[C@]2(C)[C@H]3CC=C4[C@@H]5CC(C)(C)CC[C@]5(C)CC[C@@]4(C)[C@]3(C)CC[C@H]2C1(C)C [beta-AMYRIN ACETATE] | 2.99

Row | SMILES | AlphaScreen HuR-RNA complex signal Z-score
22 | COc1cc(/C=C/C(=O)O)ccc1O | 1.64
23 | CN(C)CCc1c[nH]c2ccc(C[C@H]3COC(=O)N3)cc12 | -0.866
24 | CN(C)CCC=C1c2ccccc2C=Cc2ccccc21 | 1.06
25 | O=c1[nH]c(=O)n([C@H]2C[C@H](O)[C@@H](CO)O2)cc1F | 0.763
26 | Nc1ccc(C(=O)Oc2ccccc2)c(O)c1 | 0.323
27 | CC1=CC(=O)CC(C)(C)C1(O)/C=C/C(C)=C\C(=O)O (mixture of isomers) [ABSCISIC ACID (cis,trans; +/-)] | 0.458
28 | NC(=O)c1ncn([C@@H]2O[C@H](CO)[C@@H](O)[C@H]2O)c1N | 1
29 | CCC(=O)O[C@H]1[C@H](O[C@@H]2[C@@H](C)[C@H](O[C@H]3C[C@@](C)(OC)[C@@H](O)[C@H](C)O3)[C@@H](C)C(=O)O[C@H](CC)[C@@](C)(O)[C@H](O)[C@@H](C)C(=O)[C@H](C)C[C@@]2(C)O)O[C@H](C)C[C@@H]1N(C)C | 1.54
30 | Nc1ncnc2c1ncn2[C@@H]1O[C@H](COP(=O)(O)O)[C@@H](O)[C@H]1O | -0.00287
31 | O=C(O)c1cc(O)c2c(c1)[C@H]([C@H]1c3cc(C(=O)O)cc(O)c3C(=O)c3c(O[C@@H]4O[C@H](CO)[C@@H](O)[C@H](O)[C@H]4O)cccc31)c1cccc(O[C@@H]3O[C@H](CO)[C@@H](O)[C@H](O)[C@H]3O)c1C2=O | 0.314
32 | N[C@@H](COCc1ccccc1)C(=O)O | 1.02
33 | CC(c1cc2ccccc2s1)N(O)C(N)=O (configuration not stated) | 1.44
34 | C[C@@H]1C(=O)O[C@H]2C[C@@]34[C@H]5C[C@@H](C(C)(C)C)[C@]36[C@@H](OC(=O)[C@@H]6O)O[C@@]4(C(=O)O5)[C@]21O | 1.78
35 | COc1cc(O)c(C(C)=O)c(OC)c1 | 2.36
36 | CN(C)CCCOc1nn(Cc2ccccc2)c2ccccc12 | 0.214
37 | CCCCCCCCCCCCCc1ccco1 | 2.04
38 | OC[C@@H](O)[C@@H](O)[C@H](O)[C@@H](O)CO | -4.13
39 | CCCCC(=O)O[C@]1(C(=O)CO)[C@@H](C)C[C@H]2[C@@H]3CCC4=CC(=O)C=C[C@]4(C)[C@@]3(F)[C@@H](O)C[C@@]21C | 0.148
40 | CC(=O)OCC(=O)[C@@]1(O)CC[C@H]2[C@@H]3CCC4=CC(=O)CC[C@]4(C)[C@H]3C(=O)C[C@@]21C | -3.12
41 | Oc1ccc(O)cc1 | -8.16
42 | CC1CCC(NC(=O)N(CCCl)N=O)CC1 (configuration not stated) | 0.306

Some values from above:
`CC1CCC(NC(=O)N(CCCl)N=O)CC1` (configuration not stated) – AlphaScreen HuR-RNA complex signal Z-score: 0.306
`CC1=CC(=O)CC(C)(C)C1(O)/C=C/C(C)=C\C(=O)O` (mixture of isomers) [ABSCISIC ACID (cis,trans; +/-)] – AlphaScreen HuR-RNA complex signal Z-score: 0.458
`N[C@@H](COCc1ccccc1)C(=O)O` – AlphaScreen HuR-RNA complex signal Z-score: 1.02
